## Results of single-concentration screens

From ChEMBL document CHEMBL3988442, “University of Dundee, Small-Polar-MMV Screening Library” (2021).

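Growth of Mycobacterium tuberculosis over 3 days (7H9 medium with glucose and tyloxapol); the read-out is not stated. Concentration: 50 µM. Higher reads as more growth inhibition (inferred: compounds with an IC50 in retests scored well above the rest). About 69,000 compounds were tested under these conditions; 1.1% (about 760) showed 50% or more at least once.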

The filed quantity is “Percent Effect” (%).
The controls that fix the scale are not given in the record; negative values are as filed.
The compounds are a random part of those screened.
Two or more numbers in one place are separate tests of the same structure; such repeats can differ widely.

Compound,effect
CCc1nnc2n1CCN(CCS(=O)(=O)c1ccccc1)C2,18.1
CN1CCC(c2nnc(CN3CCCCC3)n2C)CC1,-21.24
CC(C)c1cc2c(s1)NC(c1ccccn1)NC2=O (stereo not shown),12.99
COc1ccc2nnc(CCCC(=O)NCc3ccccc3OC)n2n1,-7.931
CC(Cn1cccn1)NCc1nc(-c2cccs2)no1 (stereo not shown),25.35
CC(C)(C)NC(=O)C[C@@H]1CCNC[C@@H]1Cc1cc(C(C)(C)C)on1,1.845 & -5.717
O=C(NCc1ccccc1CO)Nc1ccc2c(c1)CCC2,-16.62
CC(C(=O)N1CCc2sccc2C1)N1CCC(S(N)(=O)=O)CC1 (stereo not shown),19.3
Cc1cc(NC(=O)CCN2CCCC2Cn2cncn2)no1 (stereo not shown),1.248
Cn1c(C(F)(F)F)nn(CCNC(=O)NCc2ccccc2)c1=O,1.097 & -12.34
Cc1nn(C)cc1-c1ccnc(N(C)Cc2noc(C(C)C)n2)n1,9.572
CCN1CCN(c2ccc(CNC(=O)c3ccc(Cl)o3)cn2)CC1,0.03713
C=C(Cl)CN1CCC(C(=O)c2cc(F)ccc2F)CC1,10.62
Clc1cc(NCc2nccs2)nc2[nH]ccc12,4.755
CC1CC(=O)c2cnc3nc(N4CCOCC4)[nH]c(=O)c3c2C1 (stereo not shown),-15.71 & -9.039
Cc1cc(C)nc(N2CCC(C(=O)Nc3n[nH]c(C(C)C)n3)CC2)n1,4.738 & -2.293
Cc1cccc(NS(=O)(=O)c2cc(C(=O)O)oc2C)c1Cl,1.119
[H][C@]12CC[C@]([H])(CN(S(C)(=O)=O)C1)N(C(=O)c1csc(NC)n1)C2,3.904
Cn1cnc2c1C(COCC1CCOCC1)CN(C(=O)c1ccoc1)C2 (stereo not shown),-38.7
CC1CN(CC(=O)Nc2nccs2)CCN1Cc1nccn1C (stereo not shown),-3.895
CCSCCC(=O)Nc1ncn(Cc2ccccc2)n1,-27.44
c1cnnc(N2CCCC(NCc3ccc(-n4cccn4)cc3)C2)c1 (stereo not shown),1.422
O=C(NCCCn1cncn1)N1CCCC(N2CCCC2)C1 (stereo not shown),32.33
CN1C[C@@H](O)[C@]2(CCN(C(=O)OCc3ccccc3)C2)S1(=O)=O,-5.38
Cc1cc(C)n(C2CCN(Cc3c(-c4cc(C)on4)nn(C)c3Cl)C2)n1 (stereo not shown),-0.9288
CCS(=O)(=O)N1CCCn2cnc(COc3cccnc3)c2C1.O=C(O)C(F)(F)F,-11.68
CN1CCOC(CNCCOc2ccc(C#N)cc2)C1 (stereo not shown),4.761
CC(C)N1CC(c2ccnc(Nc3nccs3)n2)C1,-10.19
CNC(=O)c1cn2cc(-c3ccccc3Cl)n(CC3CC3)c(=O)c2n1,-12.28
CC1CN(C(=O)NCCn2ccnc2)CCO1 (stereo not shown),3.905
O=C1N(Cc2cccc(F)c2F)CCCC1(O)CNC1CCCC1 (stereo not shown),13.42
FC(F)(F)c1ccccc1CN1CCOC[C@H](Oc2cccnc2)C1,89.33 & 5.037
[H][C@@]12C[C@H](C(=O)N(C)C)[C@@]([H])(CN(C(=O)NCC3CCCCC3)C1)O2,-4.236 & -12.16
[H][C@@]12CCN(C(=O)c3ccc(S(=O)(=O)NC4CCC4)cc3)[C@]1([H])CNC2,10.19
OC1CCN(c2ccnc(NCCc3ccccc3Cl)n2)C1 (stereo not shown),11.52
CCC(NC(=O)NCc1cccc(N(C)C)n1)c1ccccc1OC (stereo not shown),28.17
O=C(NCC1CCC2(CC1)OCCO2)c1ccncc1F,16.49 & -2.466
COCCC(=O)N1CCCC1c1cccc(C)c1C (stereo not shown),-22.77
Cc1noc(C)c1CN1CCOCC12CCN(c1nccs1)CC2.O=C(O)C(F)(F)F,-2.609
[H][C@]12CC[C@@]3(N=C(CC)N(C)C3=O)[C@@]1([H])CN(C(=O)NCc1ccccc1)C2,16.32
CCn1cc(-c2cc(C(F)(F)F)n(CCCN)n2)cn1,-2.91
Cc1cc(F)ccc1NC(=O)NCC(C)N1CCOCC1 (stereo not shown),-39.64
CCN(CC)CC1CN(CCc2ccccc2)Cc2nccn2C1.O=C(O)C(F)(F)F.O=C(O)C(F)(F)F (stereo not shown),29.61
Cc1ncc(S(=O)(=O)Nc2ccnn2C2CCCCC2)[nH]1,-10.11
COC[C@]1(O)CCN(Cc2c[nH]c(CC3CCCC3)n2)CC1(C)C,-18.96
Cc1cc(C(=O)Nc2n[nH]c(C3CC3)n2)c2c(C)noc2n1,-0.3424 & -1.564
O=S(=O)(c1ccc(Cl)s1)N1CCCC(c2ncc[nH]2)C1 (stereo not shown),0.4134
Cc1ccc(C(=O)N2CCCN(Cc3cccs3)CC2)c(=O)[nH]1,-4.341
O=C(O)c1cc(S(=O)(=O)Nc2cc(F)ccc2F)cc2c1OCCO2,0.8117
c1ccc(C(c2ccccc2)N2CCN(CCn3cncn3)CC2)cc1,-19.68
[H][C@]12CCN(S(=O)(=O)c3cccc(F)c3)[C@@]1([H])CC[C@@H](COC)O2,7.371
Nc1nc(CN2CCOC(Cn3cccn3)C2)nc2ccccc12 (stereo not shown),3.34
CS(=O)(=O)c1snnc1C1CCCN(Cc2ccncc2)C1 (stereo not shown),7.658
CNc1ncc(CN(C)Cc2cc3n(n2)CCNC3)cn1,-11.02
O=C(O)C(F)(F)F.O=C1NCC[C@]12CN(Cc1nccs1)C[C@H]2c1ccccc1,6.275
O=C(O)C1(Cc2ccccc2Cl)CCN(c2ncccc2F)CC1,-23.23
O=C1NCCN1C(CNS(=O)(=O)C1CC1)Cc1cccc(F)c1 (stereo not shown),6.122
O=C1CCc2cc(S(=O)(=O)NCc3cc4n(n3)CCNC4)ccc2N1,-7.25 & 12.1
COc1ccc(C(=O)Nc2c(C)nc3cccc(C)n3c2=O)cc1,-6.441
Cn1ccc(C(=O)N2CCN(c3ncccn3)CC2)cc1=O,20.24
O=C1CC2(CCCCN2C(=O)c2ccsc2)CN1CC1CC1 (stereo not shown),-1.48
CC(=O)Nc1ccc(CNC(=O)CNCc2sc(C)nc2C)cc1,-43.29 & -2.496
Cc1ccc(C(=O)N(Cc2ccc(F)cc2F)C2CC2)c(=O)[nH]1,-20.46
O=C(Cc1ccccc1F)NCC1CCN(CCN2CCOCC2)C1 (stereo not shown),-7.868
COc1ccccc1OC1CN(C(=O)C2CNCC(=O)N2)C1 (stereo not shown),18.5
NS(=O)(=O)c1ccc(NCc2ccccc2F)cc1C(F)(F)F,17.24
Cc1nc(CN2CCCC(CCc3ccccc3C(F)(F)F)C2)no1 (stereo not shown),34.13
Cc1ccc(N2CCCC(NCC(=O)NCC3CC3)C2)nn1 (stereo not shown),30.09
O=C(Nc1cn[nH]c1)NC1CCN(c2ccccc2OC(F)F)C1 (stereo not shown),5.305 & -6.857
[H][C@@]12CCN(C(=O)c3ccco3)C[C@]1([H])[C@@H](CNC(=O)C1CC1)OC2,9.013
Cc1ccc(CN2CCN(c3ncccc3C(N)=O)CC2CCO)cc1 (stereo not shown),-20.62
Cc1ccc(CN(C)C(=O)CN2CCCCC2Cn2cncn2)o1 (stereo not shown),12.93 & -1.695
CCS(=O)(=O)N1CCC(CSc2ccccc2)C1 (stereo not shown),6.604
CC(O)CN1CCC(CNCc2cccc(OC(C)C)c2)CC1 (stereo not shown),16.87
O=C(O)C(F)(F)F.[H][C@]12CCC[C@@]1(COCC(=O)N(C)C)CN(C1CCCC1)C2,-15.46 & -1.962
CCOc1nnc(CN(CC)CC(=O)NC(C)C)s1,-5.191
OC(COCc1ccccc1)CN1CCC(c2ccn[nH]2)CC1 (stereo not shown),-42.63
CCN(CCO)Cc1ccc(Br)c2cccnc12,-5.011 & 18.25
Cc1csc(CN(C)C(=O)c2cccc(CCC(C)(C)O)c2)n1,-12.44

Repeated from the top, 10 entries:

Result for CCc1nnc2n1CCN(CCS(=O)(=O)c1ccccc1)C2 was 18.1%.
Result for CN1CCC(c2nnc(CN3CCCCC3)n2C)CC1 was -21.24%.
Result for CC(C)c1cc2c(s1)NC(c1ccccn1)NC2=O (stereo not shown) was 12.99%.
Result for COc1ccc2nnc(CCCC(=O)NCc3ccccc3OC)n2n1 was -7.931%.
Result for CC(Cn1cccn1)NCc1nc(-c2cccs2)no1 (stereo not shown) was 25.35%.
Result for CC(C)(C)NC(=O)C[C@@H]1CCNC[C@@H]1Cc1cc(C(C)(C)C)on1 was 1.845% & -5.717%.
Result for O=C(NCc1ccccc1CO)Nc1ccc2c(c1)CCC2 was -16.62%.
Result for CC(C(=O)N1CCc2sccc2C1)N1CCC(S(N)(=O)=O)CC1 (stereo not shown) was 19.3%.
Result for Cc1cc(NC(=O)CCN2CCCC2Cn2cncn2)no1 (stereo not shown) was 1.248%.
Result for Cn1c(C(F)(F)F)nn(CCNC(=O)NCc2ccccc2)c1=O was 1.097% & -12.34%.